Where “and” joins values, the source holds several entries; their conditions need not be identical. Identical values can stand only once. About 13,000 (3.2%) of roughly 400,000 compounds were called active. This list was built around the results that the source calls inconclusive (neither active nor inactive); the mix of calls is not that of the screen. Calls come from the whole dose curve; as a rule, active = well fitted cell-killing curve with a large enough effect; inconclusive = small, poorly fitted or top-dose-only effect, or effect the other way; inactive = flat fitted curve, though single readings scatter. A potency beside an inconclusive call is a rough fit, not a confirmed value.
Experiment: qHTS assay for MDR1-selective chemotherapeutics: Primary screen using the drug-selected MDR subline cells KB-V1; note: nearly all actives have a fitted effect of over 60% in size
Settings: KB-V1 MDR cells viability, CellTiter-Glo, 72 h; series mostly up to 46.1 µM
Method in brief: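 KB-V1 cells (P-gp-expressing MDR subline of KB-3-1) in phenol-red-free DMEM with 10% FBS were exposed to library compounds over a concentration series for 72 h at 37 degrees C. Viability read by CellTiter-Glo luminescence; concentration-effect curves fitted after normalization.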
Potency is the fitted concentration of half-maximal effect.

Row | SMILES | Potency
1 | CN1CCC(N2CC3CC(C2)c2cccc(=O)n2C3)CC1 (stereo unspecified) | inactive
2 | COc1cc(/C=C/[N+](=O)[O-])ccc1O | inactive
3 | C[C@]12CCC(=O)C=C1C=CC1C2CC[C@@]2(C)C1CC[C@@H]2O (stereo partly specified) | active: 3.66 µM
4 | CSc1nnc(OC(=O)N(C)C)n1-c1ccc(Cl)cc1 | inactive
5 | COc1ccc(-n2c(O)c(/C(C)=N/Nc3ccccc3)c(=O)[nH]c2=O)cc1 | inactive
6 | O=c1c2ccccc2nc(-c2ccoc2)n1-c1ccccc1Cl | active: 16.4 µM
7 | Cc1cc(OC(=O)N(C)C)nc(SCc2c(Cl)cccc2Cl)n1 | inconclusive: 16.4 µM [cytotoxic, partial curve, poor fit]
8 | O=C(Cn1c(NCCCl)nc2ccccc21)c1ccc(Br)cc1 | inconclusive: 18.4 µM [cytotoxic, partial curve, poor fit]
9 | COc1cc(/C=C2\C(=O)NC(=O)N(c3ccccc3)C2=O)cc(OC)c1OC | inactive
10 | CN1CCN(c2cccc3c2C(=O)c2ccccc2C3=O)CC1 | active: 18.4 µM
11 | Cc1cccc(N2CCc3c2nc2ccccc2c3N)c1 | inconclusive: 20.6 µM [cytotoxic, single point] and inconclusive: 23.1 µM [cytotoxic, single point]
12 | O=c1[nH]c(=O)n(-c2ccccc2F)c(O)c1C=NCCC1=CCCCC1 | inconclusive: 29.1 µM [cytotoxic, single point]
13 | Cc1cccc(OP(=O)(Nc2cccnc2)Oc2cccc(C)c2)c1 | inconclusive: 8.2 µM [cytotoxic, partial curve]
14 | Cc1[nH]n(-c2ccccc2)c(=O)c1C(c1ccc([N+](=O)[O-])cc1)c1c(C)[nH]n(-c2ccccc2)c1=O | inactive
15 | COc1ccc(CN2Cc3cnnn3-c3ccccc3C2C)cc1 (stereo unspecified) | inconclusive: 23.1 µM [cytotoxic, single point]
16 | CCOC(=O)CN1C(=O)C2(C(C#N)=C(N)Oc3ccccc32)C(C(=O)OC)=C1C (stereo unspecified) | inactive
17 | NC(=O)c1ccc(N)nc1 | inconclusive: 4.61 µM [cytotoxic, partial curve]
18 | CCCCc1nc2ccccc2c(=O)n1-c1ccc(O)cc1 | inactive
19 | N[C@@H](Cc1ccc(N(CCCl)CCCl)cc1)C(=O)O | inactive
20 | Cc1cccc(CCNCc2cc3ccc(C)cc3[nH]c2=O)c1 | inactive
21 | CCCCn1c(NC(=O)c2ccco2)c(C(=O)OCC)c2nc3ccccc3nc21 | inactive
22 | COC(=O)C1=C(c2ccc3ccccc3c2)C[C@@H]2CC[C@H]1N2C(=O)NCc1ccc(C(F)(F)F)cc1 | inconclusive: 29.1 µM [cytotoxic, single point]
23 | CCOc1cccc(=NC2CCCCC2)c2c(C)n(C)c(C)c12 | inconclusive: 29.1 µM [cytotoxic, single point]

Row | SMILES | Potency
24 | O=C(c1ccc2nc3ccc(Cl)cc3c(=O)n2c1)N1CCC2(CC1)OCCO2 | active: 20.6 µM
25 | Nc1c(C(=O)Nc2ccc(Br)cc2F)sc2nc3c(cc12)N1CCC3CC1 | inconclusive: 2.06 µM [cytotoxic, full curve]
26 | C[C@]12CCC3C(CC[C@H]4C[C@H](O)CC[C@]34C)C1[C@@H](O)[C@@H](O)[C@@H]2O (stereo partly specified) | inactive
27 | O=C(c1ccc2c(c1)ncn2C1CCCCC1)N1CCC2(CC1)OCCO2 | active: 9.2 µM
28 | CC12CCC(=O)C=C1CC(N1CC1)C1C2CCC2(C)C(O)CCC12 (stereo unspecified) | inconclusive: 16.4 µM [cytotoxic, single point]
29 | Cc1ccc(Cn2c(C)c3cnn(CC(=O)N4CCC5(CC4)OCCO5)c(=O)c3c2C)cc1 | inconclusive: 23.1 µM [cytotoxic, partial curve]
30 | Cc1ccccc1-n1c(C)nc2ccccc2c1=O | inactive
31 | COc1cc(OC)c([C@H]2C=C(C)[C@H]3C[C@@H]2C3(C)C)c(OC)c1 | inactive
32 | N#CC1=C(N)Oc2c(c(=O)oc3ccccc23)C1c1ccc(OC(=O)N2CCOCC2)cc1 (stereo unspecified) | inconclusive: 9.2 µM [rising, partial curve, poor fit]
33 | COc1ccc(CN2C(=O)NC(=O)/C(=C/c3ccc([N+](=O)[O-])s3)C2=O)cc1 | inactive
34 | O=C(c1cc(F)ccc1F)C1CCCN(Cc2ccc3nonc3c2)C1 (stereo unspecified) | inconclusive: 14.6 µM [cytotoxic, partial curve]
35 | CC1Oc2cc3c(-c4c(O)cc(O)c5c(O)c6c(cc45)OC(C)C(C)C6=O)c(O)cc(O)c3c(O)c2C(=O)C1C (stereo unspecified) | inconclusive: 29.1 µM [cytotoxic, single point]
36 | CCn1ccnc1CN1CCCC(C(=O)c2ccc(SC)cc2)C1 (stereo unspecified) | inconclusive: 11.6 µM [cytotoxic, partial curve, poor fit]
37 | CC(=O)Nc1cccc([As](=O)(c2cccc(NC(C)=O)c2)c2cccc(NC(C)=O)c2)c1 | inconclusive: 29.1 µM [cytotoxic, single point]
38 | Cc1ccc2c(c1)C1CN(C)CCC1N2C(=O)c1ccco1 (stereo unspecified) | inconclusive: 16.4 µM [cytotoxic, partial curve, poor fit]
39 | CCC(C)NC(=O)c1c(N)n(Cc2ccc3c(c2)OCO3)c2nc3ccccc3nc12 (stereo unspecified) | inconclusive: 29.1 µM [cytotoxic, single point]
40 | O=C(N/N=C/c1c(O)n(C2CC2)c(=S)[nH]c1=O)c1ccccc1O | inconclusive: 29.1 µM [cytotoxic, single point]
41 | O=c1nc(/C=C/c2ccc(Cl)cc2Cl)cc(C(F)(F)F)[nH]1 | inactive
42 | O=c1[nH]c(=S)[nH]c(O)c1N=Nc1ccc2c(c1)OCO2 | inconclusive: 20.6 µM [cytotoxic, single point]
43 | O=Cc1cn(Cc2cccc([N+](=O)[O-])c2)c2ccccc12 | inconclusive: 14.6 µM [cytotoxic, partial curve]
44 | CCC(C)N1C(=O)NC(=O)C2(Cc3cc(C)ccc3N(C)C2)C1=O (stereo unspecified) | inactive
45 | CCc1nn(CC(=O)N2CCC3(CC2)OCCO3)c(=O)c2cc3ccccc3n12 | inconclusive: 2.59 µM [cytotoxic, partial curve, poor fit]
46 | CCC(=NCCc1c[nH]c2ccccc12)c1c(O)n(-c2ccc(C)cc2)c(=O)[nH]c1=O | active: 20.6 µM
